Among the test systems are guanine-9- (human); juvenile (human); rC (human).
Holding throughout (assay): protein microarray (ProtoArray v5.0), streptavidin-Alexa Fluor 647
What all share (conditions): 3'-biotin; 20 mM Tris (pH 7.5), 5 mM MgCl2, 100 mM KCl, 0.1% Tween-20, A/T-rich and random oligonucleotide blockers; temperature not stated; high values mean tight binding

The test system of assay [1] is cDNA clone MGC:39134 IMAGE:4892821 (human).
The test system of assay [2] is cDNA clone MGC:40177 IMAGE:5167345, complete cds (human).
Assay [3] relates to cDNA clone MGC:48448 IMAGE:5266019 (human).
The subject of assay [4] is cDNA clone MGC:52019 IMAGE:5188979 (human).
Assay [5] concerns cDNA clone MGC:70358 IMAGE:5539182 (human).
For assay [6], the system named is cDNA clone MGC:75009 IMAGE:5170001 (human).
Assay [7] relates to cDNA clone MGC:8430 IMAGE:2821116 (human).
The subject of assay [8] is cDNA clone MGC:88809 IMAGE:6279986 (human).
For assay [9], the system named is hypothetical LOC554201 (human).
In assay [10] the test system is in the protein list file (human).
Assay [11] concerns mRNA similar to hypothetical protein FLJ20234 (human).
Assay [12] relates to protein for MGC:19786 (human).

Several values for one entry are separate records, joined by “and”; a condition that tells them apart may be missing. Identical values can stand only once. The list shows a part of the results.

As to “GGGGACAGGGGTATGGGGAGGGG [G4-3 biotinylated (CtG)]”, the binding signal in [1] was -0.332 z-score; in assay [2], -0.328 z-score; in [3] it was -0.324 z-score; in assay [4] it was -0.322 z-score; in assay [5], -0.331 z-score; in assay [6] it was -0.337 z-score. The binding signal in [7] was -0.329 z-score; in assay [8] it was -0.324 z-score; in the assay on guanine-9- (human), 4.73 z-score and 4.57 z-score; in assay [9], -0.331 z-score; in assay [10] it was -0.307 z-score; in the assay on juvenile (human), -0.318 z-score. In addition, the binding signal in [11] is -0.325 z-score; in [12], -0.34 z-score; in the assay with rC (human), -0.32 z-score.

The record behind these values is PMC5996148.
